Data taken from the supplement of paper PMC10849652.
The other results are listed elsewhere or left out.

Amino acid sequences for entries named in this document (tags omitted). A change or cut given only in a name is not applied to a line headed by its entry.
UniProt Q969H8: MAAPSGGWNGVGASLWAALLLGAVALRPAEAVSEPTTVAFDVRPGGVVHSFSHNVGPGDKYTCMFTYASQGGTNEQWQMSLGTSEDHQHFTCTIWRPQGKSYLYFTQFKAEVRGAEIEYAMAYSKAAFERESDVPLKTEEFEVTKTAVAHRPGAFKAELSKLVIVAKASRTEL
UniProt P42898: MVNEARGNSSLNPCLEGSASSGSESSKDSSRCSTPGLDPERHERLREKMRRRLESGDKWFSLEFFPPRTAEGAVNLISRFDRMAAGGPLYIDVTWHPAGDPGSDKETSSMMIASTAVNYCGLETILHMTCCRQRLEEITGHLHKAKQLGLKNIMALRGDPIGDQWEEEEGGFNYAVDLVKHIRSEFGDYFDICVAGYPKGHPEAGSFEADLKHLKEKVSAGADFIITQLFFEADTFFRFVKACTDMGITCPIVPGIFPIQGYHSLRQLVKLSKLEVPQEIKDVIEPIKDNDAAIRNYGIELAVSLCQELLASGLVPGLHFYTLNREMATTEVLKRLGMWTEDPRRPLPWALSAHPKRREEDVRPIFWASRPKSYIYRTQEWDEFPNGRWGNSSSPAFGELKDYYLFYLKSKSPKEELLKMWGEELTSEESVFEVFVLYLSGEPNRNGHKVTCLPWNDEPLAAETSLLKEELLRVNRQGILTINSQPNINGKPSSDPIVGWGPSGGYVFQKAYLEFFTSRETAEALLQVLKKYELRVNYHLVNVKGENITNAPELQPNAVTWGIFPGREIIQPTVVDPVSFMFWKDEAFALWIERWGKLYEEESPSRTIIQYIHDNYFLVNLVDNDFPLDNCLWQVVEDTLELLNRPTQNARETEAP
UniProt Q9UDX5: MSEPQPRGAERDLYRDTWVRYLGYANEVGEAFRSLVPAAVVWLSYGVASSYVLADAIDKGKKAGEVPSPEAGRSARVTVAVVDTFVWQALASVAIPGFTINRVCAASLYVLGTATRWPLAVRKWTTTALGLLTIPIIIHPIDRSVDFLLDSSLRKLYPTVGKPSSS
UniProt O75592: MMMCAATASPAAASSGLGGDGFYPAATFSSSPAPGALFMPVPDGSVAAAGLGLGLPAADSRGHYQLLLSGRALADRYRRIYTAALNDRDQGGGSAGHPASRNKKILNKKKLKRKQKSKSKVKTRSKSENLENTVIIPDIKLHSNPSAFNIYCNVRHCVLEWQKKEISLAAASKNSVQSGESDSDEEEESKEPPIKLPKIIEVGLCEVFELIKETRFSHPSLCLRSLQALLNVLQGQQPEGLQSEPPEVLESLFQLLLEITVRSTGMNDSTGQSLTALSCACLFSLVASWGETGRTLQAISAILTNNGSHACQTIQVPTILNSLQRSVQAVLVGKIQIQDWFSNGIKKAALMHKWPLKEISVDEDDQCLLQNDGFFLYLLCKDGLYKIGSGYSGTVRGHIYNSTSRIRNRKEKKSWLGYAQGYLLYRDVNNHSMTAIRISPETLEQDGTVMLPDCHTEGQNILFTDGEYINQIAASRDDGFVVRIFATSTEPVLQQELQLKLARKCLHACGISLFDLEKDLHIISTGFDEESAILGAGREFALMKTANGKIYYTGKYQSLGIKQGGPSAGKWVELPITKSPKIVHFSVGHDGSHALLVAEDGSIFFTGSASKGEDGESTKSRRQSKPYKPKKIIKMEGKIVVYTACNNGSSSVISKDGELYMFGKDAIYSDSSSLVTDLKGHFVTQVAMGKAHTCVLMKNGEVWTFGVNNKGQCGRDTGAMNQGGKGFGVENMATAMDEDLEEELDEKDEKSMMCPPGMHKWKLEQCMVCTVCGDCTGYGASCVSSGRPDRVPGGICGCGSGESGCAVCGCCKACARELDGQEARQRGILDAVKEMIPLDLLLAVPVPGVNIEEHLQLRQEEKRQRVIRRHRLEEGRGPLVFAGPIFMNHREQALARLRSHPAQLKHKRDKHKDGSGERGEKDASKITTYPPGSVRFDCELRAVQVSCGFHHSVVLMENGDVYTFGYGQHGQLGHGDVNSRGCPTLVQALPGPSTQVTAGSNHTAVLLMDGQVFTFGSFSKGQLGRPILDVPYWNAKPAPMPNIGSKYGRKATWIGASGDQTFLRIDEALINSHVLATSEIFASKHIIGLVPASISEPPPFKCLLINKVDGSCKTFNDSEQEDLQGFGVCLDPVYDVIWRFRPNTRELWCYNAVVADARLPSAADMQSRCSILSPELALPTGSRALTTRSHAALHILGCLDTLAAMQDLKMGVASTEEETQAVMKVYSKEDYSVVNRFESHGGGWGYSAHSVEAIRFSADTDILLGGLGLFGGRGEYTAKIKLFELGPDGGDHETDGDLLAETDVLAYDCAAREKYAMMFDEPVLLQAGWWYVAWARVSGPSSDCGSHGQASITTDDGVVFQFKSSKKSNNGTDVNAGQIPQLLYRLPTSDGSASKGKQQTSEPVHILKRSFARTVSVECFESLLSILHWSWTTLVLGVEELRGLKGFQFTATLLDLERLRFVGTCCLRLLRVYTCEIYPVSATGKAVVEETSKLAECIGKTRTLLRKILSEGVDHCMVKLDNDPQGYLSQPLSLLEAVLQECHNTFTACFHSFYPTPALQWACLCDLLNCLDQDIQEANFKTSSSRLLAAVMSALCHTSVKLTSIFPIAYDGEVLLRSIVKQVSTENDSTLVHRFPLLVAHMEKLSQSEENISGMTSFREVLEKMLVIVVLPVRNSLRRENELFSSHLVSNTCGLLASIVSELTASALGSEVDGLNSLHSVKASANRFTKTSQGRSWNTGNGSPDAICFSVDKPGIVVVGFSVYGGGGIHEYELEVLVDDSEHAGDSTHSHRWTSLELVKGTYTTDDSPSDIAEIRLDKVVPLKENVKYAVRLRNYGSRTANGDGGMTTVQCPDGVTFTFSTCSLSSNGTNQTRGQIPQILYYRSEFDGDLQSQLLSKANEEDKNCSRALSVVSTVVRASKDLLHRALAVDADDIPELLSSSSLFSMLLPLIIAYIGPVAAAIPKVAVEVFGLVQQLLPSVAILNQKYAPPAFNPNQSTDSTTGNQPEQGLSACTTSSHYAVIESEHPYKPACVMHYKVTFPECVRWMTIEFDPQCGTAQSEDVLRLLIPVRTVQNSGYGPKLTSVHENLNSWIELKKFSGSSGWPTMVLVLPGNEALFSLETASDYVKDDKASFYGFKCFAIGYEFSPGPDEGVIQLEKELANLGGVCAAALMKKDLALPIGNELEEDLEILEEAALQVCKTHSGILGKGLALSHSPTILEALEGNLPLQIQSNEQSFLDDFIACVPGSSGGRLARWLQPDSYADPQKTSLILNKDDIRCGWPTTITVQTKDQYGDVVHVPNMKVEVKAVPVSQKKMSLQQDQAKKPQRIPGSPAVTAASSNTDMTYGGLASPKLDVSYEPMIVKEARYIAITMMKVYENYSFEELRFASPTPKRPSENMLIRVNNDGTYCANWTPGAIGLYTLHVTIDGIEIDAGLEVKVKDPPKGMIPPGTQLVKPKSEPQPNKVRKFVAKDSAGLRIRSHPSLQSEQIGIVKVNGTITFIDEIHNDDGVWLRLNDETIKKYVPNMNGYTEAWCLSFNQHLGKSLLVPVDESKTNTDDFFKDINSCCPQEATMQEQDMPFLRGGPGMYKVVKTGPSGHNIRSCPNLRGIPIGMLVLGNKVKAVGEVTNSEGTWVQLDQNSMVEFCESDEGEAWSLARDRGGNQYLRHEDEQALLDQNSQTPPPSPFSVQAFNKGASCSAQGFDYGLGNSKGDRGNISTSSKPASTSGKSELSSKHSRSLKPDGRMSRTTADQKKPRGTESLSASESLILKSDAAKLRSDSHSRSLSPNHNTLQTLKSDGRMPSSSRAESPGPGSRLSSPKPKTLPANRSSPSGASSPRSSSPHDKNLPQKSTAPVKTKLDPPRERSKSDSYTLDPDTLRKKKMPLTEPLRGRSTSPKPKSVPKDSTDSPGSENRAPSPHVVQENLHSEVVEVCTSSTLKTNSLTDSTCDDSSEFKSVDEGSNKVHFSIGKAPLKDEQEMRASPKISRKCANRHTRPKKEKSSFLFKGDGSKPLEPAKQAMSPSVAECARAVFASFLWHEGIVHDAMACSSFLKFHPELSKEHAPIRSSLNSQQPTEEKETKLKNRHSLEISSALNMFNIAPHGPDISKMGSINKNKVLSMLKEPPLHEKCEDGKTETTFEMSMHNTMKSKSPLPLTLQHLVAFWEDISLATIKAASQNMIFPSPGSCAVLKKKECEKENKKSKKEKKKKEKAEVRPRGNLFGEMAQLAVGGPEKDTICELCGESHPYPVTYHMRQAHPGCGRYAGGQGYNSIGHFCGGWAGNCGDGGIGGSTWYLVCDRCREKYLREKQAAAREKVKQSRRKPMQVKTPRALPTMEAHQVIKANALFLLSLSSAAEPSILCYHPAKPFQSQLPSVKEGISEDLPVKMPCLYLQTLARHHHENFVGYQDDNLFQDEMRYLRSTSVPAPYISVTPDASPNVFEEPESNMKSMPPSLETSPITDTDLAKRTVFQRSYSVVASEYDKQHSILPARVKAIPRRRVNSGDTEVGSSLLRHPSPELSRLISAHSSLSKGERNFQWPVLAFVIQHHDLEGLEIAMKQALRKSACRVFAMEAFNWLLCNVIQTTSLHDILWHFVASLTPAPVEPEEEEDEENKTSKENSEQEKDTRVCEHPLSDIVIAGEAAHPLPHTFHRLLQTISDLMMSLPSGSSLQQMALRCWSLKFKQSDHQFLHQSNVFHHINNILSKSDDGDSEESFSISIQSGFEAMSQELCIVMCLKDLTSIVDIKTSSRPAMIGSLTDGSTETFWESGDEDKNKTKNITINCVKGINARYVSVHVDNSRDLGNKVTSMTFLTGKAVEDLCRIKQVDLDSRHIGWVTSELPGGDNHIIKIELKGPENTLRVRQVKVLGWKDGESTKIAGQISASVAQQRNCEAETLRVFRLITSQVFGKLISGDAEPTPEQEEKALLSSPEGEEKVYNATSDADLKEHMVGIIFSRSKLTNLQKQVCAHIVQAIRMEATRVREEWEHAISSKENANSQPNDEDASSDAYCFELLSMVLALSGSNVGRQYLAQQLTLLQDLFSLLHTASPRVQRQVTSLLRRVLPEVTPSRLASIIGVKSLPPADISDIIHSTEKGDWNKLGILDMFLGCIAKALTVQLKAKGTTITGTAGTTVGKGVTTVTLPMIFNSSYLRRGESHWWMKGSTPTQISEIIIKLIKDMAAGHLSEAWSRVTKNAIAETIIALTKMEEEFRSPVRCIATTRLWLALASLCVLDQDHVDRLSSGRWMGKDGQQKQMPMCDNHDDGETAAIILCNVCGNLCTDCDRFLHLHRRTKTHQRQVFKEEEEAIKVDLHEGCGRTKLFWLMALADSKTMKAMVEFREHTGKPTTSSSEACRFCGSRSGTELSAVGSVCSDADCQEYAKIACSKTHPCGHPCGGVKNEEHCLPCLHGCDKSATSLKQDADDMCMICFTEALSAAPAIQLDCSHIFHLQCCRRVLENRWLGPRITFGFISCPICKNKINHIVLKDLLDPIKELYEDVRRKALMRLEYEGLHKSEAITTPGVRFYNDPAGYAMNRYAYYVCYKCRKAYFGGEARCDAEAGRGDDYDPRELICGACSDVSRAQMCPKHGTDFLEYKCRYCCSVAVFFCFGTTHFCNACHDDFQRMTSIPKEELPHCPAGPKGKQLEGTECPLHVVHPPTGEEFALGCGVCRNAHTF
UniProt P13995: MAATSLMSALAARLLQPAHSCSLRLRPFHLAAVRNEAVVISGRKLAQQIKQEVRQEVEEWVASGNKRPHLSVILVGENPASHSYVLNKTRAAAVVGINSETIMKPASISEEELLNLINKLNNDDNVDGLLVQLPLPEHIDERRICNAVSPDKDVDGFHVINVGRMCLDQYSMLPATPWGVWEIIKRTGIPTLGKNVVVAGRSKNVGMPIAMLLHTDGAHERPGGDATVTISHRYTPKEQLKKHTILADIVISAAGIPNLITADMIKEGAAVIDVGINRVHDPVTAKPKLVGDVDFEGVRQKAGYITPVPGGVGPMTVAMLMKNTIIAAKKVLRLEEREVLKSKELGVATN
UniProt P82909: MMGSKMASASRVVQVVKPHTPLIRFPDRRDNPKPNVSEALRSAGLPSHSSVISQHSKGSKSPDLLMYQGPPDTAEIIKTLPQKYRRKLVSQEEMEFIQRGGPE
UniProt Q9Y3D2: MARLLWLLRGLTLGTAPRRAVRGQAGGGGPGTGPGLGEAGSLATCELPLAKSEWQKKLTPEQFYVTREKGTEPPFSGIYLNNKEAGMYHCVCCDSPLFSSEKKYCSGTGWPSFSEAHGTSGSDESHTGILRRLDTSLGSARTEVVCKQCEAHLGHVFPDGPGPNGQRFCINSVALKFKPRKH
UniProt Q96E11: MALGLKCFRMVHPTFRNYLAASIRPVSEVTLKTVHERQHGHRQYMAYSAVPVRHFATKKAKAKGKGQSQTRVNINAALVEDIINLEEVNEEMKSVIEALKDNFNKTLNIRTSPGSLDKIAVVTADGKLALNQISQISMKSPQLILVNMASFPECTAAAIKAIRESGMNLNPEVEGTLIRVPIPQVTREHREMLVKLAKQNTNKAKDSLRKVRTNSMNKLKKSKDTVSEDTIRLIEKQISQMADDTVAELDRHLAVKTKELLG

Legend:
Test in all cases: log2 fold change, soluble protein after heating vs DMSO (PISA); higher = thermal stabilisation; K562 cells, 10 uM, 30 min; active = over 0.2 and 3.5 SD of the protein, either way, in both replicates (recomputed)
[1] = compound: CC[C@@H]1C(=O)N(C)c2cnc(Nc3ccc(C(=O)NC4CCN(C)CC4)cc3OC)nc2N1C1CCCC1
Method in brief: (§1)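 Soluble protein was quantified by TMTpro 16plex LC-MS/MS after channel sums were equalised. It was obtained as the supernatant after 21,000xg for 90 min from pooled aliquots of K562 cells (2×10^6 cells/mL, 10 μM compound, 30 min) heated for 3 min across 48°C-58°C and extracted in PBS with 0.5% NP-40 at 4°C. Thermal stability values are relative to control samples and come from duplicates. They are given as log2 fold changes.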

volasertib = compound: CC[C@@H]1C(=O)N(C)c2cnc(Nc3ccc(C(=O)N[C@H]4CC[C@H](N5CCN(CC6CC6)CC5)CC4)cc3OC)nc2N1C(C)C [volasertib]
Method in brief: as §1

[2] = compound: CC[C@H](C)N1C=C(C2=C(C=C(C=C21)C3=CN=C(C=C3)N4CCNCC4)C(=O)NCC5=C(C=C(NC5=O)C)C)C
Method in brief: as §1

epoxomicin = compound: CC[C@H](C)[C@@H](C(=O)N[C@@H]([C@@H](C)O)C(=O)N[C@@H](CC(C)C)C(=O)[C@]1(CO1)C)NC(=O)[C@H]([C@@H](C)CC)N(C)C(=O)C [epoxomicin]
Method in brief: as §1

[3] = compound: CCn1c(C(=O)N(C2CC2)C2CC2)cc2c3c(ncn3C)c(Nc3cc(C)n(C)n3)nc21
Method in brief: as §1

[4] = compound: CCn1cc(-c2ccnc3[nH]c(-c4cccc(CN(C)C)c4)cc23)c(-c2ccc(NC(=O)N(C)C)cc2)n1
Method in brief: as §1

[5] = compound: CN(C)CC(=O)Nc1ccc2[nH]c(=O)c3ccccc3c2c1
Method in brief: as §1

rosiglitazone = compound: CN(CCOC1=CC=C(C=C1)C[C@H]2C(=O)NC(=O)S2)C3=CC=CC=N3 (racemic) [rosiglitazone]
Method in brief: as §1

[6] = compound: CN1C2=C(C3=C1C(=O)N(N=C3)CC4=CC(=CC=C4)N)SC(=C2)S(=O)C
Method in brief: as §1

[7] = compound: CN1CCC(CNc2ccc3ncc(-c4cccc(OC(F)(F)F)c4)n3n2)CC1
Method in brief: as §1

Measured: log2 fold change

MYDGF (UniProt Q969H8)
inactive: [1] 0.047 | volasertib 0.046 | [2] -0.036 | epoxomicin -0.005 | [3] 0.013 | [4] 0.005 | [5] -0.024 | rosiglitazone -0.035 | [6] -0.023 | [7] 0.072

MRPL58 (UniProt Q14197)
inactive: [1] -0.023 | volasertib 0.067 | [2] 0.067 | epoxomicin -0.049 | [3] -0.071 | [4] 0.012 | [5] -0.034 | rosiglitazone -0.062 | [6] 0.071 | [7] -0.025

MTHFR isoform 2 (UniProt P42898)
inactive: [1] 0 | volasertib 0.021 | [2] 0.017 | epoxomicin 0.038 | [3] -0.009 | [4] -0.01 | [5] 0.024 | rosiglitazone 0.002 | [6] -0.102 | [7] 0.008

MTFP1 (UniProt Q9UDX5)
inactive: [1] 0.071 | volasertib 0.011 | [2] -0.041 | epoxomicin -0.045 | [3] 0.043 | [4] 0.019 | [5] 0.087 | rosiglitazone 0.009 | [6] -0.009 | [7] 0.036

MYH4 (UniProt Q9Y623)
inactive: [1] 0.91

MYCBP2 (UniProt O75592)
inactive: [1] 0.055 | volasertib 0.043 | [2] -0.109 | epoxomicin -0.059 | [3] 0.032 | [4] 0.014 | [5] -0.049 | rosiglitazone -0.126 | [6] 0.69 | [7] -0.255

MTHFD2 (UniProt P13995)
inactive: [1] -0.024 | volasertib 0.025 | [2] 0.017 | epoxomicin 0.066 | [3] -0.017 | [4] -0.053 | [5] -0.023 | rosiglitazone 0.025 | [6] -0.026 | [7] -0.103

MTPN (UniProt P58546)
inactive: [1] -0.131 | volasertib -0.18 | [2] 0.001 | epoxomicin 0.264 | [3] 0.036 | [4] 0.09 | [5] 0.012 | rosiglitazone -0.008 | [6] 0.018 | [7] 0.127

MRPS23 (UniProt Q9Y3D9)
inactive: [1] -0.001 | volasertib 0.08 | [2] 0.133 | epoxomicin 0.044 | [3] 0.032 | [4] -0.018 | [5] 0.024 | rosiglitazone 0.006 | [6] 0.047 | [7] 0.068

MTRR isoform 1 (UniProt Q9UBK8)
inactive: [1] 0.009 | volasertib -0.101 | [2] -0.001 | epoxomicin 0.036 | [3] -0.172 | [4] -0.031 | [5] 0.089 | rosiglitazone 0.021 | [6] -0.033 | [7] -0.071

MTDH (UniProt Q86UE4)
inactive: [1] 0.222 | volasertib 0.358 | [2] -0.052 | epoxomicin -0.318 | [3] 0.017 | [4] 0.27 | [5] -0.123 | rosiglitazone -0.169 | [6] 0.278 | [7] 0.331

MYO1C (UniProt O00159)
inactive: [1] -0.056 | volasertib -0.322 | [2] 0.115 | epoxomicin -0.144 | [3] -0.03 | [4] -0.011 | [5] 0.009 | rosiglitazone 0.064 | [6] 0.154 | [7] -0.209

2 successive records out of the list so far, quoted:
MTPN (UniProt P58546)
inactive: [1] -0.131 | volasertib -0.18 | [2] 0.001 | epoxomicin 0.264 | [3] 0.036 | [4] 0.09 | [5] 0.012 | rosiglitazone -0.008 | [6] 0.018 | [7] 0.127

MRPS23 (UniProt Q9Y3D9)
inactive: [1] -0.001 | volasertib 0.08 | [2] 0.133 | epoxomicin 0.044 | [3] 0.032 | [4] -0.018 | [5] 0.024 | rosiglitazone 0.006 | [6] 0.047 | [7] 0.068

(further entries)

MTSS2 (UniProt Q765P7)
inactive: [1] 0.106 | volasertib 0.041 | [2] -0.003 | epoxomicin -0.016 | [3] -0.037 | [4] 0.06 | [5] -0.009 | rosiglitazone 0.057 | [6] -0.022 | [7] -0.114

MRPL9 (UniProt Q9BYD2)
inactive: [1] 0.039 | volasertib 0.193 | [2] 0.035 | epoxomicin 0.066 | [3] -0.013 | [4] -0.024 | [5] 0.047 | rosiglitazone 0.002 | [6] 0.082 | [7] 0.028

MRPS34 (UniProt P82930)
inactive: [1] 0.06 | volasertib 0.004 | [2] 0.021 | epoxomicin -0.002 | [3] -0.068 | [4] -0.055 | [5] 0.036 | rosiglitazone -0.018 | [6] 0.051 | [7] 0.175

MTMR6 (UniProt Q9Y217)
inactive: [1] -0.094 | volasertib 0.043 | [2] -0.015 | epoxomicin -0.061 | [3] -0.146 | [4] -0.003 | [5] -0.036 | rosiglitazone 0.078 | [6] -0.092 | [7] -0.015

MRPS30 (UniProt Q9NP92)
inactive: [1] -0.014 | volasertib 0.17 | [2] 0.095 | epoxomicin 0.045 | [3] -0.051 | [4] -0.202 | [5] -0.008 | rosiglitazone 0.021 | [6] 0.053 | [7] 0.12

MRPS36 (UniProt P82909)
inactive: [1] -0.03 | volasertib 0.08 | [2] -0.001 | epoxomicin 0.054 | [3] -0.027 | [4] -0.025 | [5] -0.008 | rosiglitazone -0.011 | [6] 0.078 | [7] -0.055

MVD (UniProt P53602)
inactive: [1] 0.013 | volasertib 0.017 | [2] 0.011 | epoxomicin 0.014 | [3] -0.057 | [4] -0.059 | [5] -0.022 | rosiglitazone 0.003 | [6] 0.002 | [7] -0.081

MTMR3 (UniProt Q13615)
inactive: [1] -0.068 | volasertib -0.092 | [2] 0.008 | epoxomicin -0.055 | [3] -0.074 | [4] -0.045 | [5] -0.013 | rosiglitazone 0.006 | [6] 0.011 | [7] -0.015

MSRB2 (UniProt Q9Y3D2)
inactive: [1] -0.078 | volasertib 0.25 | [2] 0.129 | epoxomicin 0.033 | [3] 0.009 | [4] -0.079 | [5] 0.172 | rosiglitazone 0.111 | [6] -0.123 | [7] 0.081

MSI1 (UniProt O43347)
inactive: [1] 0.164 | volasertib -0.06 | [2] -0.066 | epoxomicin -0.063 | [3] -0.11 | [4] 0.125 | [5] -0.042 | rosiglitazone 0.037 | [6] 0.071 | [7] 0

MSN (UniProt P26038)
inactive: [1] -0.018 | volasertib 0.042 | [2] 0.024 | epoxomicin 0.036 | [3] 0.013 | [4] -0.032 | [5] -0.001 | rosiglitazone 0.016 | [6] -0.075 | [7] 0.085

MRTFA (UniProt Q969V6)
inactive: [1] -0.084 | volasertib -0.064 | [2] 0.002 | epoxomicin 0.074 | [3] 0.039 | [4] 0 | [5] -0.129 | rosiglitazone 0.035 | [6] 0.021 | [7] -0.092

MRTO4 (UniProt Q9UKD2)
inactive: [1] -0.052 | volasertib -0.431 | [2] 0.08 | epoxomicin -0.257 | [3] -0.16 | [4] 0.209 | [5] 0.057 | rosiglitazone -0.064 | [6] 0.246 | [7] 0.228

MTX1 (UniProt Q13505)
inactive: [1] -0.034 | volasertib -0.061 | [2] 0.028 | epoxomicin 0.037 | [3] -0.007 | [4] -0.067 | [5] 0.007 | rosiglitazone 0.013 | [6] -0.077 | [7] 0.062

MRRF (UniProt Q96E11)
inactive: [1] 0.015 | volasertib -0.087 | [2] 0.07 | epoxomicin 0.04 | [3] -0.037 | [4] -0.03 | [5] 0.01 | rosiglitazone 0.036 | [6] 0.036 | [7] 0.101

MTMR12 (UniProt Q9C0I1)
inactive: [1] 0.042 | volasertib 0.06 | [2] 0.007 | epoxomicin 0.026 | [3] -0.007 | [4] 0.019 | [5] -0.002 | rosiglitazone -0.012 | [6] -0.016 | [7] 0.009

MYH14 isoform 2 (UniProt Q7Z406)
inactive: [1] -0.019 | volasertib -0.128 | [2] -0.011 | epoxomicin 0.123 | [3] -0.019 | [4] -0.047 | [5] 0.005 | rosiglitazone 0.044 | [6] -0.011 | [7] -0.08

MRPS28 (UniProt Q9Y2Q9)
inactive: [1] 0.074 | volasertib 0.186 | [2] 0.005 | epoxomicin 0.093 | [3] 0 | [4] -0.124 | [5] -0.052 | rosiglitazone -0.024 | [6] 0.027 | [7] -0.068
